The values are deposited in ChEMBL (CHEMBL3988442, “University of Dundee, Small-Polar-MMV Screening Library” (2021)).

By UniProt entry, the sequences of proteins in these tests, tags left out. Residues count along the entry.
UniProt Q8IDJ8, 1-583: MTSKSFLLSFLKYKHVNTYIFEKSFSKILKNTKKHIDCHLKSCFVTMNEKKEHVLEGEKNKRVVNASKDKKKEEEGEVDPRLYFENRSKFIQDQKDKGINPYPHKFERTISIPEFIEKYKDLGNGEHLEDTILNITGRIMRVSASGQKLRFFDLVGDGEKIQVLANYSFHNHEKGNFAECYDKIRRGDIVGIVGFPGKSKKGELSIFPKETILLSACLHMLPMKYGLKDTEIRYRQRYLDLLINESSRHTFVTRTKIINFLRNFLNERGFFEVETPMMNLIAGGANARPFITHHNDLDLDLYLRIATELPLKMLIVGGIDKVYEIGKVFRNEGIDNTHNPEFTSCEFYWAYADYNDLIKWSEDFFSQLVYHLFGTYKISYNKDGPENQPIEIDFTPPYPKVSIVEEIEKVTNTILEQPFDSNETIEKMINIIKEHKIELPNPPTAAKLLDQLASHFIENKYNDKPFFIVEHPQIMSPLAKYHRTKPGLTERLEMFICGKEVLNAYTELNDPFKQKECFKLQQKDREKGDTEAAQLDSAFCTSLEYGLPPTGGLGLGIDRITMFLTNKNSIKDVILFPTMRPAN
UniProt I6X8D2, whole entry: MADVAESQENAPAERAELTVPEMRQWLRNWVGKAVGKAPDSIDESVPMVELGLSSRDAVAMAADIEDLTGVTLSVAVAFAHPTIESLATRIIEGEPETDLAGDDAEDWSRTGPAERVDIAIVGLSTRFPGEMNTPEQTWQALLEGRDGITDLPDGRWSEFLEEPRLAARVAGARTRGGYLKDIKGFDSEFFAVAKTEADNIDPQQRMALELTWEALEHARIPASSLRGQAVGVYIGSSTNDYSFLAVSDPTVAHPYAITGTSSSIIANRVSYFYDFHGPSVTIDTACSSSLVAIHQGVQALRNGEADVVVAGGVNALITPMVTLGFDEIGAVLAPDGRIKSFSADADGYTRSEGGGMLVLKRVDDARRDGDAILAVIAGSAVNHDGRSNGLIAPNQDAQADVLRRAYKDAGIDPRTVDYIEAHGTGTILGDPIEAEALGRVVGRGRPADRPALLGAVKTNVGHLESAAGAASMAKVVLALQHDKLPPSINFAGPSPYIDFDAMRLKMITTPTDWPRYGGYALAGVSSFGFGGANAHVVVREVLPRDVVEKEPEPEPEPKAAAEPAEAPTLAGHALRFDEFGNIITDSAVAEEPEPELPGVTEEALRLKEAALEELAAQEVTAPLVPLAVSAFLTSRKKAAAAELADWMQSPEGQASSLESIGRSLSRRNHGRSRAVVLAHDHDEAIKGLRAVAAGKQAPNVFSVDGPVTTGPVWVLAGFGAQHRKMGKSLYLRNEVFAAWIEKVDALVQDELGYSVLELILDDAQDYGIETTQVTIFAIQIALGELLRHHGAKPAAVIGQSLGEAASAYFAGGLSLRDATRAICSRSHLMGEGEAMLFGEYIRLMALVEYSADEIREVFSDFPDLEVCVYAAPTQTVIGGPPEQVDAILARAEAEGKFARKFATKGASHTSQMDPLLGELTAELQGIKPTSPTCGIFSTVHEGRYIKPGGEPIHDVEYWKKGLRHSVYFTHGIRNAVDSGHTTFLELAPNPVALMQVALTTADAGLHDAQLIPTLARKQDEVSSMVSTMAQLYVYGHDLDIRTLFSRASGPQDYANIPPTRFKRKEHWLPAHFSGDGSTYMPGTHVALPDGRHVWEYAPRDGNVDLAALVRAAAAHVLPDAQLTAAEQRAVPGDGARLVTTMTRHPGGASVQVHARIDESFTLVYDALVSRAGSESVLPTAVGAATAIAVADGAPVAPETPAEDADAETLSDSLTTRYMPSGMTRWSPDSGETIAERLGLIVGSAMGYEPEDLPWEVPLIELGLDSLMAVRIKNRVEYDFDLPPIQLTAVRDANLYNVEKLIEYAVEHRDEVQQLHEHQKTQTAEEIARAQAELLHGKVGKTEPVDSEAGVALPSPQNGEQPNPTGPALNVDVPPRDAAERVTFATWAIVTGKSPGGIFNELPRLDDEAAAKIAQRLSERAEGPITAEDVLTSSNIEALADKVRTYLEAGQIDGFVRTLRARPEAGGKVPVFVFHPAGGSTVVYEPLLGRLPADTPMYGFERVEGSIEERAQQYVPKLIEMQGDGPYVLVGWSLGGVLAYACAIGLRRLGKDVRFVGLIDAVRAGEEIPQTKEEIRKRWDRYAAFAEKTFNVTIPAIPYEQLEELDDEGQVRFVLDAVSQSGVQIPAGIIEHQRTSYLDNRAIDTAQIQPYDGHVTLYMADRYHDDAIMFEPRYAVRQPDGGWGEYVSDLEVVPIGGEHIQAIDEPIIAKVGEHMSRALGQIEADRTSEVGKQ
UniProt P9WPC5, whole entry: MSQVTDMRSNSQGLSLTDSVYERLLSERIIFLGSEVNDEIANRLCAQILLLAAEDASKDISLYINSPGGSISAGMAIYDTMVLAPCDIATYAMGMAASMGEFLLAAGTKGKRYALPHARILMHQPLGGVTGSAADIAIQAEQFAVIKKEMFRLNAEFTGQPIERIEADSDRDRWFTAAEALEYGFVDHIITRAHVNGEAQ
UniProt P9WPC3, whole entry partner: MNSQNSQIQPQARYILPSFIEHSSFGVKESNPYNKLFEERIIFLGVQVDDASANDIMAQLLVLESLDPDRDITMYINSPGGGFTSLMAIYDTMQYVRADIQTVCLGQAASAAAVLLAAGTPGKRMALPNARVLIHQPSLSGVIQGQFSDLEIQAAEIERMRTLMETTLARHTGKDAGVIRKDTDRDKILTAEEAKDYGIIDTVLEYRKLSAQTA

The filed quantity is “Percent Effect” (%). How 0% and 100% were set is not recorded. Most values in the screen are low, and negative values occur. The compounds are a random part of those screened.

PfKRS1: 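Lysine-tRNA ligase, Plasmodium falciparum 3D7 (UniProt Q8IDJ8). Enzyme assay of the cytosolic lysyl-tRNA synthetase in 384-well plates, read by luminescence. Compounds at 30 µM. Direction is inferred from only a few compounds that gave an IC50; most scored high, so higher reads as stronger inhibition. Size under these conditions: about 69,000 compounds, about 49 of them at 50% or above in at least one test.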
Pks13 thioesterase: 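Enzyme assay of the thioesterase domain of polyketide synthase 13; the read-out is not stated. Target: Polyketide synthase Pks13, Mycobacterium tuberculosis (UniProt I6X8D2). Compounds at 30 µM. The record gives no direction; the compounds picked for IC50 retests had high values, so higher reads as stronger inhibition. About 67,000 compounds were tested under these conditions; 0.46% (about 300) showed 50% or more at least once.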
ClpP1P2: 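Protease assay of ClpP1P2, read by the AMC dye that it sets free. Target: ClpP1P2, Mycobacterium tuberculosis (UniProt P9WPC5 and UniProt P9WPC3). Compounds at 50 µM. Higher reads as stronger inhibition, judged from the few compounds that gave an IC50. Most other retested compounds had strongly negative values. Of about 69,000 compounds tested this way, about 10 (0.015%) reached 50% or more in at least one test.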

{"smiles": "COc1ccc(C2CCCN2Cc2ccc(S(=O)(=O)N(C)C)o2)cc1", "stereo": "stereo not given", "PfKRS1": 1.182, "Pks13 thioesterase": 7.088, "ClpP1P2": -42.58}
{"smiles": "CC(C)Cc1cc(NC(=O)c2n[nH]c3ccccc23)n(C)n1", "PfKRS1": 1.287, "Pks13 thioesterase": -8.243, "ClpP1P2": -3.689}
{"smiles": "CS(=O)(=O)Cc1noc(CN2CCN(c3ccccc3Cl)CC2)n1", "PfKRS1": 0.4039, "Pks13 thioesterase": 4.184, "ClpP1P2": -10.59}
{"smiles": "Cc1cccc(-n2cnnc2CCCN2CCOCC2)c1", "PfKRS1": 3.238, "Pks13 thioesterase": -12.43, "ClpP1P2": 5.186}
{"smiles": "Cc1cnn(CC2CN(Cc3nc4ccccc4nc3C)CCO2)c1", "stereo": "stereo not given", "PfKRS1": 7.967, "Pks13 thioesterase": -16.01, "ClpP1P2": -3.325}
{"smiles": "COCCN(C)CCN1CC2(CCN(C3CCNCC3)CC2)OC1=O", "PfKRS1": 5.43, "Pks13 thioesterase": -14.39, "ClpP1P2": -5.957}
{"smiles": "CCn1cnnc1C1CCN(C(=O)C(OC)c2ccccc2)CC1", "stereo": "stereo not given", "PfKRS1": 3.995, "Pks13 thioesterase": -23.1, "ClpP1P2": 26.01}
{"smiles": "O=C(NCc1ccccn1)[C@@H]1COC[C@H]2CN(C3CCOCC3)C[C@H]21", "PfKRS1": 3.504, "Pks13 thioesterase": -15.65, "ClpP1P2": 6.08}
{"smiles": "COCCNC(=O)[C@@H]1CC[C@@H]2[C@@H](CCN2Cc2cnn(C)c2)O1", "PfKRS1": 2.421, "Pks13 thioesterase": -19.48, "ClpP1P2": -4.667}
{"smiles": "CN(CCCc1cc(-c2ccc(F)cc2)n(C)n1)CC(N)=O", "PfKRS1": -1.968, "Pks13 thioesterase": -7.484, "ClpP1P2": -10.47}
{"smiles": "CCC[C@H]1CN(c2nc(CO)cs2)C[C@@H]1NC(=O)C1(COC)CC1", "PfKRS1": 4.904, "Pks13 thioesterase": 7.083, "ClpP1P2": -14.03}
{"smiles": "O[C@@H]1C[C@@](CNCc2cccc(Cl)c2)(COc2cnccn2)C[C@@H]1O", "PfKRS1": 7.213, "Pks13 thioesterase": -30.72, "ClpP1P2": -2.908}
{"smiles": "O=C(c1cc[nH]n1)N1CCc2ncnc(N3CCSCC3)c2CC1", "PfKRS1": 0.4646, "Pks13 thioesterase": -5.861, "ClpP1P2": -6.622}
{"smiles": "FC(F)(F)c1cccc(OC2CCN(Cc3ncc[nH]3)CC2)c1", "PfKRS1": 6.184, "Pks13 thioesterase": -28.02, "ClpP1P2": -9.406}
{"smiles": "CC(=O)N1CCCC1c1ccnc(Nc2cncnc2)n1", "stereo": "stereo not given", "PfKRS1": -0.677, "Pks13 thioesterase": -1.972, "ClpP1P2": -0.4684}
{"smiles": "CNC(=O)c1nc(Cn2ncc3ccccc3c2=O)no1", "PfKRS1": -0.6401, "Pks13 thioesterase": 3.955, "ClpP1P2": -1.077}
{"smiles": "CN(C)S(=O)(=O)N1CCN(C(=O)c2cc(-c3ccc(Br)s3)n[nH]2)CC1", "PfKRS1": 2.466, "Pks13 thioesterase": -15.33, "ClpP1P2": 9.386}
{"smiles": "O=C(NC1CCNCC1)C1(N2CCCCC2)Cc2ccccc2C1", "PfKRS1": -1.103, "Pks13 thioesterase": -24.33, "ClpP1P2": 25.91}
{"smiles": "O=C(NCc1ccc(Br)cc1)C1(O)CCSCC1", "PfKRS1": 2.114, "Pks13 thioesterase": -32.15, "ClpP1P2": -2.716}
{"smiles": "CCOc1ccc(CN(CC)C(=O)c2ccc(C)[nH]c2=O)cc1OC", "PfKRS1": 0.203, "Pks13 thioesterase": -12.41, "ClpP1P2": -23.48}
{"smiles": "COc1c(CNC2CCCOc3ccccc32)c(C(C)C)nn1C", "stereo": "stereo not given", "PfKRS1": 1.555, "Pks13 thioesterase": -21.21, "ClpP1P2": -4.162}

2 of the entries, repeated:

SMILES,PfKRS1,Pks13 thioesterase,ClpP1P2
COCCN(C)CCN1CC2(CCN(C3CCNCC3)CC2)OC1=O,5.43,-14.39,-5.957
O=C(NC1CCNCC1)C1(N2CCCCC2)Cc2ccccc2C1,-1.103,-24.33,25.91